Measurements as given in the supplement of paper PMC10849652.
The list shows a part of the results.

The chains behind the UniProt entries cited, without tags or fusion partners. Where a name states a change or a piece, a line headed by the entry shows the natural chain unless it says otherwise.
UniProt Q96A46: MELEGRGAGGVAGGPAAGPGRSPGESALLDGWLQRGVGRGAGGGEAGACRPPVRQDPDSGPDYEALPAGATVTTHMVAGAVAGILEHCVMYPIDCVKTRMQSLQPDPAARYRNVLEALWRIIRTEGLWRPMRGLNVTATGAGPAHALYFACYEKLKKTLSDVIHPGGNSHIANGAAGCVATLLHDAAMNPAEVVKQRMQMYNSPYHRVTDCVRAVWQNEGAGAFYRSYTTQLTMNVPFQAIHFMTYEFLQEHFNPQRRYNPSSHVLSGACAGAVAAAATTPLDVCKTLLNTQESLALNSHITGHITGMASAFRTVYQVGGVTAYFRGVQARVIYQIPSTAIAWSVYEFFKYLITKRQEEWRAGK
UniProt Q8N2U9: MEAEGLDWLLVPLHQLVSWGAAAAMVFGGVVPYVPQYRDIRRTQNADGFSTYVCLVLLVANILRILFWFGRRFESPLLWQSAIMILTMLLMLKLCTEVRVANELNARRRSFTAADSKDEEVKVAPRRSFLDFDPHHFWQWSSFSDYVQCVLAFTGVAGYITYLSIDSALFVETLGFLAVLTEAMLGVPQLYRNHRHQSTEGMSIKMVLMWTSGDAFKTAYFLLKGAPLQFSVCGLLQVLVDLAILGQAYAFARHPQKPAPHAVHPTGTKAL
UniProt O94956: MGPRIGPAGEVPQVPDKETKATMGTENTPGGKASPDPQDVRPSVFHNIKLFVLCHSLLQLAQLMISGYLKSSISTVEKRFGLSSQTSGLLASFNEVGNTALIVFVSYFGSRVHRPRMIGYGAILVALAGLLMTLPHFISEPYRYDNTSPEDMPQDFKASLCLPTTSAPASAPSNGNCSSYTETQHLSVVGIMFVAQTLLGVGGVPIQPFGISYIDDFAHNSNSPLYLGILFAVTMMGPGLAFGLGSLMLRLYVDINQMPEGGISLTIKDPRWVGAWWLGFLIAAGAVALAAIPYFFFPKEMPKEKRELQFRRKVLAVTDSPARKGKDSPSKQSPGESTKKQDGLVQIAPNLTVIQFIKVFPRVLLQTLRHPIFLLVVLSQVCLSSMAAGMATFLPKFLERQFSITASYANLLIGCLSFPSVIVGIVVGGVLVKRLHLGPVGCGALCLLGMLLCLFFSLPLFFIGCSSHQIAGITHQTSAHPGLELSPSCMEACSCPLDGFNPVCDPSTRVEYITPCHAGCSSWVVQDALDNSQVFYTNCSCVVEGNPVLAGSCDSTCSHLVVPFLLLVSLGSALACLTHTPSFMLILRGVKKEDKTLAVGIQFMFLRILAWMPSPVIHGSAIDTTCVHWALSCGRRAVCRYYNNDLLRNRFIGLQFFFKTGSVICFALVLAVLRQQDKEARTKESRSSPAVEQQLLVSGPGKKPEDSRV
UniProt Q13433: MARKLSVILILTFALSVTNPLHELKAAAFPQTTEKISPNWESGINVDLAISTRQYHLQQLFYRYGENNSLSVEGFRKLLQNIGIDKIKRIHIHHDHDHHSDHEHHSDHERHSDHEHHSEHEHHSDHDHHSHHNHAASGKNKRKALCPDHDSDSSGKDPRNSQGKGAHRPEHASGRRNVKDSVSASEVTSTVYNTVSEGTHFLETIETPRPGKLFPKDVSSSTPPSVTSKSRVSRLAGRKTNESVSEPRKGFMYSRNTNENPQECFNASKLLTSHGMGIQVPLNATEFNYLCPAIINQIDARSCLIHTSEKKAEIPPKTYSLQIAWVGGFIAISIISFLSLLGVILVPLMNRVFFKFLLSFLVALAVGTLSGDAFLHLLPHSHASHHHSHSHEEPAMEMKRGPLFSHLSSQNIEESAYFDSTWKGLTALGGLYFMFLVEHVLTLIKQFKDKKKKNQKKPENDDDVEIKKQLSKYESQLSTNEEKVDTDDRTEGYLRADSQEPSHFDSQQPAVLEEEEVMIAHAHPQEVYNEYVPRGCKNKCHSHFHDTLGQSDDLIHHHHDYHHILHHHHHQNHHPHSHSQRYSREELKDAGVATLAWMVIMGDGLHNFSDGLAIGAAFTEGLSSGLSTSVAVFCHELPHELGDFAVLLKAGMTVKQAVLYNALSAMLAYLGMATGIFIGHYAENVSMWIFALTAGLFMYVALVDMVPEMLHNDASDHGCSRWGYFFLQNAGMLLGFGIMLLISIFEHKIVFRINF
UniProt Q6PML9: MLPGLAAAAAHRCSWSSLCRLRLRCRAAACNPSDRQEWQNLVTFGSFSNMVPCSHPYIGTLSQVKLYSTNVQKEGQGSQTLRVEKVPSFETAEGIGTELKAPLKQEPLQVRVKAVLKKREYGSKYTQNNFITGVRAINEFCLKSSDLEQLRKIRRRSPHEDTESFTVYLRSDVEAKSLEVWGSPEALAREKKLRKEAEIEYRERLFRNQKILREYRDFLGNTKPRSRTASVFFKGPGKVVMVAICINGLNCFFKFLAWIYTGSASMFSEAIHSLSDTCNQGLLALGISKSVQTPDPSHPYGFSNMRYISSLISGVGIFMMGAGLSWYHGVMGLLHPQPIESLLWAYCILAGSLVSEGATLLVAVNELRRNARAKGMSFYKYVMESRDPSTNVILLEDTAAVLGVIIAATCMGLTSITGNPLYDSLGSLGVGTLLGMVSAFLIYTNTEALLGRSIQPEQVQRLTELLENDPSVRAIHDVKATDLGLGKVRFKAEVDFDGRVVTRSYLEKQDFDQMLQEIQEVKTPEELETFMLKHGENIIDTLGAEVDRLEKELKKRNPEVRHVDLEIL
UniProt P84022, whole entry, looked up: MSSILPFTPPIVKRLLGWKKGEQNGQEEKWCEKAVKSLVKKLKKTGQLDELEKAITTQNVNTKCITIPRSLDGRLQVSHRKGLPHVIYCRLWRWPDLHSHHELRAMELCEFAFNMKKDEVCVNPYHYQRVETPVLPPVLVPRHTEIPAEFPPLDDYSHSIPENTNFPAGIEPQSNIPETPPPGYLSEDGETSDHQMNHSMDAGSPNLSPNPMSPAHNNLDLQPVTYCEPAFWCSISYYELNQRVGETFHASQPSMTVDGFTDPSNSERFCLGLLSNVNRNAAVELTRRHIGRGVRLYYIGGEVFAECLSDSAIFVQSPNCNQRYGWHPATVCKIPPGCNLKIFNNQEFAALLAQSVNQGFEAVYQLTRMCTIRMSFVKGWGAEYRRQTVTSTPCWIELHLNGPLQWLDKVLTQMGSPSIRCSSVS
UniProt Q8N755: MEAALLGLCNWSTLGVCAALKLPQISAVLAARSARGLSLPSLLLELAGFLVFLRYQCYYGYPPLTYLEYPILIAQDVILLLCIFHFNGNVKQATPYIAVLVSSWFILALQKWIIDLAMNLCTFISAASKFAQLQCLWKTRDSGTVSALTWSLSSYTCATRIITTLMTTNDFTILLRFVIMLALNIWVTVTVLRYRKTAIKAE
UniProt Q6ZP29: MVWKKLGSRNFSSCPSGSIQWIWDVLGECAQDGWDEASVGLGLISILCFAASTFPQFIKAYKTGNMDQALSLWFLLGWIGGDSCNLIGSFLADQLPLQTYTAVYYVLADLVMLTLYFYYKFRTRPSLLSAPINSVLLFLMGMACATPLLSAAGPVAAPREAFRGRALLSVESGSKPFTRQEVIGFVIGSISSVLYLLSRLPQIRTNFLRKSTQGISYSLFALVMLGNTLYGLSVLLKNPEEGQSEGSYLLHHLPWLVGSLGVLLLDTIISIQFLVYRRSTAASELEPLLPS
UniProt P0C7P3: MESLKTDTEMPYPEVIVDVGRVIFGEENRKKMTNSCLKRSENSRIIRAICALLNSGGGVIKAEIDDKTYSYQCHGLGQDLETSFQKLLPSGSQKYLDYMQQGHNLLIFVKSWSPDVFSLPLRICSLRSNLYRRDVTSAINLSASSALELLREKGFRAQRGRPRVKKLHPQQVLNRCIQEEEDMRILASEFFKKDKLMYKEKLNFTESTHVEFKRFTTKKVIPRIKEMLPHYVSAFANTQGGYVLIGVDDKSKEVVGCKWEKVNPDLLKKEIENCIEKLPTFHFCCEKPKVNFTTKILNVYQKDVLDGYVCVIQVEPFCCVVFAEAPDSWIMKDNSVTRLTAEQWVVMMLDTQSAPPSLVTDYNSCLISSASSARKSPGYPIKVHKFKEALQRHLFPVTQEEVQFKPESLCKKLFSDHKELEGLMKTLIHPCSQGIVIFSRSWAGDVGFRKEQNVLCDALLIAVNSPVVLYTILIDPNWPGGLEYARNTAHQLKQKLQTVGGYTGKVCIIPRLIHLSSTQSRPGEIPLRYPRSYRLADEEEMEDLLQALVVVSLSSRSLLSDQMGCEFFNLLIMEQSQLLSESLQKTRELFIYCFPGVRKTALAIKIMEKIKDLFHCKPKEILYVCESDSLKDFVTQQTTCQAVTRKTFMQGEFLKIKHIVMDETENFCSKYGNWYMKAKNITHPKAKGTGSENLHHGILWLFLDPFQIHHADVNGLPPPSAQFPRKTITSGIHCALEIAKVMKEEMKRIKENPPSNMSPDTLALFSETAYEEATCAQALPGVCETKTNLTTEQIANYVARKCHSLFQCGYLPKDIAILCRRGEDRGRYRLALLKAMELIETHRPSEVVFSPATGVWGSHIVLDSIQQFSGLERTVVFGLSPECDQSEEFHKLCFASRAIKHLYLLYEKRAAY

Assays:
Test in all cases: log2 fold change, soluble protein after heating vs DMSO (PISA); higher = thermal stabilisation; K562 lysate, 10 uM; active = over 0.2 and 3.5 SD of the protein, either way, in both replicates (recomputed)
[1] = compound: NCC(=O)Nc1ccc(-n2nc(C(F)(F)F)cc2-c2ccc3c(ccc4ccccc43)c2)cc1
Summary of the method: (§1)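 Soluble protein was defined as the supernatant remaining after 21,000xg for 90 min, following pooling of heated aliquots and adjustment to 0.5% NP-40 at 4°C. Before that, crude K562 extract at 1 mg/mL protein in PBS pH 7.4 with 1 mM MgCl2 was treated with 10 μM compound for 30 min and heated for 3 min across 48°C-58°C. Quantification used TMTpro 16plex LC-MS/MS with channel sums equalised, and values are log-two fold changes in thermal stability relative to solvent controls from duplicates.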

[2] = compound: O=C1NC(=O)C(c2cnc3ccccn23)=C1c1cn2c3c(cc(F)cc13)CN(C(=O)N1CCCCC1)CC2
Summary of the method: as §1

entospletinib = compound: c1cn2cc(-c3ccc4cn[nH]c4c3)nc(Nc3ccc(N4CCOCC4)cc3)c2n1 [entospletinib]
Summary of the method: as §1

vorinostat = compound: O=C(CCCCCCC(=O)Nc1ccccc1)NO [vorinostat]
Summary of the method: as §1

silmitasertib = compound: O=C(O)c1ccc2c(c1)nc(Nc1cccc(Cl)c1)c1ccncc12 [silmitasertib]
Summary of the method: as §1

Row | Target | log2 fold change [1] | log2 fold change [2] | log2 fold change (entospletinib) | log2 fold change (vorinostat) | log2 fold change (silmitasertib)
1 | SLC25A28 (UniProt Q96A46) | inactive: 0.11 | inactive: -0.098 | inactive: -0.112 |  | 
2 | SLC66A2 (UniProt Q8N2U9) |  |  | inactive: -0.003 | inactive: 0.031 | inactive: 0.099
3 | SLCO2B1 (UniProt O94956) |  |  | inactive: 0.081 |  | 
4 | SLC39A6 (UniProt Q13433) |  | inactive: -0.009 |  | inactive: 0.14 | inactive: -0.019
5 | SLC30A9 (UniProt Q6PML9) | inactive: -0.109 | inactive: 0.004 | inactive: -0.027 | inactive: 0.071 | inactive: -0.058
6 | SMAD3 (UniProt P84022) |  | inactive: 0.042 |  |  | 
7 | SLC66A3 (UniProt Q8N755) | inactive: 0.023 | inactive: 0.105 |  |  | 
8 | SLC66A1 (UniProt Q6ZP29) |  | inactive: -0.085 |  | inactive: 0.021 | inactive: -0.058
9 | SLFN14 (UniProt P0C7P3) | inactive: -0.095 | inactive: -0.072 | inactive: 0.127 |  | 
